Assay results from publication PMC8571306.
No constants are given. Whether binding was seen depends on the method and setting. For part of these data: In cells and extracts the contact can be indirect. Some entries that bind do so weakly or less than the wild type. Each block holds one substance with its values, some of them ahead of it.

Chains of the proteins cited; added tags and fusions are not shown. Lines headed by an entry give the natural chain unless they say otherwise; changes in a name come on top. Residues count along the entry.
UniProt P45974: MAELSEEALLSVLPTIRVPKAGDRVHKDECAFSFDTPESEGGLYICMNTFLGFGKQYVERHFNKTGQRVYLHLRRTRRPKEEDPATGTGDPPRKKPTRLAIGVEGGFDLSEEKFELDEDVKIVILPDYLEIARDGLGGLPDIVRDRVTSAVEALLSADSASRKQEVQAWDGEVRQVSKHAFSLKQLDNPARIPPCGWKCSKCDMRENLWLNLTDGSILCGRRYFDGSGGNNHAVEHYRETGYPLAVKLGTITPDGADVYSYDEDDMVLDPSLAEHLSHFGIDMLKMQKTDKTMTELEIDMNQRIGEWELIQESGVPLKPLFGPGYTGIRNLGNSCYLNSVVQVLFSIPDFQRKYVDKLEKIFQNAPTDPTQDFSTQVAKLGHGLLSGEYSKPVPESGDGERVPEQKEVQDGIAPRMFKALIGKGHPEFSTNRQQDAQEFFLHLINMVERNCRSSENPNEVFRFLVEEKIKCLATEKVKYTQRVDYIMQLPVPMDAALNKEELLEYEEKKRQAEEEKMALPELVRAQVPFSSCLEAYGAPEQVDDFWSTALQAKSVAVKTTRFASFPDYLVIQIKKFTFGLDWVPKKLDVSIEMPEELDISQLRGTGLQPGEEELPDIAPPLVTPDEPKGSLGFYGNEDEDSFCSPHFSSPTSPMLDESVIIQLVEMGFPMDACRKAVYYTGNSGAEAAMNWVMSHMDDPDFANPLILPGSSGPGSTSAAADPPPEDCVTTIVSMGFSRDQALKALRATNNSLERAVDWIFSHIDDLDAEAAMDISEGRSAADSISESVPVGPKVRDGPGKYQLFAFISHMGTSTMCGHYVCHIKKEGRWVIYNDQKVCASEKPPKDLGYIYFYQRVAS
UniProt Q9NZQ7: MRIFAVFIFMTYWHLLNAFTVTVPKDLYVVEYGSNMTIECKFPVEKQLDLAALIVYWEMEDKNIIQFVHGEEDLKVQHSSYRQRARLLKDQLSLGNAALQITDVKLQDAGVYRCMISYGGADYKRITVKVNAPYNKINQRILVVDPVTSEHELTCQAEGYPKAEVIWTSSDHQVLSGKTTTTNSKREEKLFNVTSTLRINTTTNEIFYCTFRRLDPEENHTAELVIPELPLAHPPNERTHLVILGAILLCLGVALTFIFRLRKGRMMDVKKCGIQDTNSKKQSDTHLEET
PD-L1, endogenous (human (endogenous in H1299 and H460)): residues 19-290 of Q9NZQ7

Key:
recombinant GST-USP5 = recombinant GST-USP5 (UniProt P45974); assay: pull-down; in vitro GST pull-down with purified recombinant GST-USP5 and His-PD-L1; both purified
[1] = target: ubiquitin specific peptidase 5 (USP5), endogenous (human (endogenous in H1299 and H460)) (UniProt P45974); assay: co-IP; endogenous proteins in lysates of H1299 and H460 cells; anti-PD-L1 or anti-USP5 antibody with protein A/G sepharose beads overnight at 4 °C in EBC buffer (50 mM Tris-HCl pH 7.6-8.0, 0.5% NP-40, 1 mM EDTA, 1 mM β-mercaptoethanol); western blot
[2] = target: PD-L1, endogenous (human (endogenous in H1299 and H460)) (UniProt Q9NZQ7); assay: as above

binding (recombinant GST-USP5): binds
Substance: recombinant His6-PD-L1 (from UniProt Q9NZQ7 19-238)

binding [1]: binds
Substance: PD-L1, endogenous (from UniProt Q9NZQ7 19-290)

binding [2]: binds
Substance: ubiquitin specific peptidase 5 (USP5), endogenous (from UniProt P45974 1-858) (enzyme)
